Test results as given in PMC6389977.
Results are given in words; binding and its absence hold for the method and conditions named. For some assays here: In cells and extracts the contact can be indirect. Some binding calls cover weakened binding; strength is not graded here.

Amino acid sequences for entries named in this document (tags omitted).
UniProt P04406: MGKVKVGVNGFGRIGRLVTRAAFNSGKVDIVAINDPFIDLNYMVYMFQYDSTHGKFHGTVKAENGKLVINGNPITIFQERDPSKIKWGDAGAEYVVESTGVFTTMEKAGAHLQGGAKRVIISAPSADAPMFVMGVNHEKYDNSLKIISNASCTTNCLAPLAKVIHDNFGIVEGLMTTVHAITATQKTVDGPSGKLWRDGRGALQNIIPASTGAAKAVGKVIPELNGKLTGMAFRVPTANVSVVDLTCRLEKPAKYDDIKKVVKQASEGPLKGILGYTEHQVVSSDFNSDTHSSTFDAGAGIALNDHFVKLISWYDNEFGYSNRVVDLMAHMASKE

Assays:
[1] = target: GAPDH of Huh7.5.1 cells (human (endogenous in Huh7.5.1)) (UniProt P04406); test: co-IP
[2] = target: recombinant full-length DENV2 NS3 protein (dengue virus 2, New Guinea C (NGC) strain) (UniProt P14340); test: ELISA; both purified

DENV2 NS3 protein in DENV2-infected Huh7.5.1 cells (from UniProt P29990 1476-2093)
binding [1]: binds

purified recombinant human GAPDH protein (from UniProt P04406 1-335) (enzyme)
binding [2]: binds
